PubChem BioAssay AID504764 – Drosophila RNAi Screening Center – 2011

- Test: 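Genome-wide screen for regulators of Notch-driven gene expression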 (primary screen)
- System: Drosophila Kc167 cells
- Reagent: long dsRNA against Drosophila genes
- Duration: about 5 days (4 days dsRNA, then 24 h after transfection)
- Challenge: transfection of constitutively active membrane-tethered Notch lacking the extracellular domain, read 24 h later
- Detection: 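Firefly luciferase from an E(spl)m3 reporter with active Notch, plus control-promoter and uninduced reporter wells for normalisation; unnormalised counts, duplicate wells a and b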
- Scale: induced reporter light, run 1, well a and induced reporter light, run 1, well b: higher = more light from the Notch target reporter with active Notch; control promoter light, run 1, well a and control promoter light, run 1, well b: higher = more light from the viral control promoter (cell number, transfection, viability); uninduced reporter light, run 1, well a: higher = more light from the Notch target reporter without active Notch
- Rule for the call: 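Wells with low control signal or poorly matching duplicates excluded; duplicates averaged; per source plate, z beyond ±2 for induced/control log2 ratio or beyond ±1.8 for induced/uninduced marks a hit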
- Meaning of the calls: active = modifier hit (raised or lowered Notch signal); inactive = not a hit
In all, the deposit lists about 22,000 reagents; below is a random part of those that have a named target and a result. Over the whole deposit, 403 (1.9%) were called active. 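Unnormalised raw counts per well; ratio z-scores behind the hit calls and whether each hit raises or lowers signal are not deposited.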 Names joined by + are all predicted targets of the reagent. The record does not give: the amount of reagent.

predicted target,amplicon,"induced reporter light, run 1, well a","induced reporter light, run 1, well b","control promoter light, run 1, well a","control promoter light, run 1, well b","uninduced reporter light, run 1, well a",call
fabp + sea,DRSC16114,1.45e5,1.43e5,1.06e5,86175,10430,inactive
fabp + sea,DRSC16115,1.53e5,1.57e5,1.20e5,1.04e5,10395,inactive
dx,DRSC18767,1.33e5,1.57e5,2.65e5,2.20e5,10555,inactive
CG1724,DRSC20548,93225,80900,78290,1.10e5,10000,inactive
sc,DRSC18830,99530,74340,1.35e5,1.24e5,9260,inactive
apt,DRSC04671,1.32e5,1.44e5,35565,45460,33675,inactive
Snx6,DRSC03081,1.47e5,1.71e5,1.72e5,1.91e5,14575,inactive
CG31288,DRSC14667,1.58e5,1.32e5,1.80e5,1.99e5,12690,inactive
CG31544 (retired record),DRSC12466,1.40e5,1.60e5,1.27e5,96955,11255,inactive
CG14627,DRSC18630,61355,50820,65835,94190,5438,inactive
IFT46,DRSC02462,67810,53005,72080,76990,4635,inactive
Uhg3,DRSC22963,,,,,,inactive
CG13113,DRSC02211,1.46e5,2.11e5,1.06e5,1.28e5,20375,inactive
CG6040,DRSC15954,1.23e5,1.76e5,1.97e5,1.53e5,14295,inactive
Cyp311a1,DRSC20239,1.54e5,1.45e5,2.39e5,1.90e5,9325,inactive
CG33483,DRSC14019,73450,90730,1.16e5,1.05e5,6755,inactive
CG4238,DRSC00090,1.10e5,1.09e5,1.54e5,1.67e5,7545,inactive
CG4238,DRSC00644,1.52e5,1.45e5,1.27e5,85320,10240,inactive
side-V,DRSC04188,2.36e5,2.09e5,2.05e5,1.86e5,16915,inactive
side-V,DRSC04189,1.64e5,1.63e5,2.64e5,2.28e5,14595,inactive
side-V,DRSC22266,,,,,,inactive

Ordered by “control promoter light, run 1, well a” (lowest first): some entries from above.
predicted target,amplicon,"induced reporter light, run 1, well a","induced reporter light, run 1, well b","control promoter light, run 1, well a","control promoter light, run 1, well b","uninduced reporter light, run 1, well a",call
CG1724,DRSC20548,93225,80900,78290,1.10e5,10000,inactive
dx,DRSC18767,1.33e5,1.57e5,2.65e5,2.20e5,10555,inactive
